{"source": "the supplement of paper PMC8728848", "binders": {"B1": {"name": "GS13599A-bth-520-23-520 (Bacteroides thetaiotaomicron) (protein)", "chain": "SEDTMDRINKDHDHTTSVASRFILADVITSTAFSNASGDINTYASSYIEYEVGVDNQLYYAEVRENEPSSSSTFNNSWNGIYSSLKNARIIIDQCGEGGRDHGNDVTRGMAEVMAAYNCALIADFFGDAPCSQAALVDEKGSPVYMTPKMDTQQEIYTQIISYLDDAIANLQKEDLADVTEQDFLYAGDADKWLKFAYGLKARYTMRLINRSSNKSADYEKVLDYVSKSFTSADDQAAFDIYDSNNINPFYGFYNSRAGFGASTSLGTKLLAYNDPRANRAFFTPIVDKKRSQVAANDPSLVPAPNGSPDQSTSKYGISAFVYAKTAPTLLMSYHELMFLKAEALCRLNRDAEDALKEAVVAGLLNAENSISIAIKELGSGLNTNSSEVITETSAGKYFDDVVKAKYAANPLQETMIQKYLAMWGASGEATETYNDFRRMKGLNENFITLTNPNNSSKFPLRYPYGNSDTAANPEVKAAYGNGDYVYSEPVWWAGGSR"}}, "assay_in_all_cases": "glycan array binding signal (z-score within array); higher = stronger binding", "details_in_all_cases": "glycan notation: IUPAC condensed, linker removed", "key": {"[1]": {"molecular_target": "Gal(b1-3)GalNAc(b1-3)Gal(a1-4)Gal(b1-4)Glc", "summary_of_the_method": "(§1)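 Glycan array binding is given as a within-array Z-score, which can be read as non-binding when negative. The arrays, 3228 of them, came from the Consortium for Functional Glycomics database and were retained only where the protein sequence was available. Z-scores were averaged across arrays of the same protein sequence at different concentrations or buffers and across linkers.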"}, "[2]": {"molecular_target": "Gal(b1-3)GalNAc(b1-4)Gal(b1-4)Glc", "summary_of_the_method": "as §1"}, "[3]": {"molecular_target": "Gal(b1-3)GalNAc(b1-4)[Neu5Ac(a2-3)]Gal(b1-4)Glc", "summary_of_the_method": "as §1"}, "[4]": {"molecular_target": "Gal(b1-3)GlcNAc", "summary_of_the_method": "as §1"}, "[5]": {"molecular_target": "Gal(b1-3)GlcNAc(a1-3)Gal(b1-4)GlcNAc", "summary_of_the_method": "as §1"}, "[6]": {"molecular_target": "Gal(b1-3)GlcNAc(a1-6)Gal(b1-4)GlcNAc", "summary_of_the_method": "as §1"}, "[7]": {"molecular_target": "Gal(b1-3)GlcNAc(b1-2)Man", "summary_of_the_method": "as §1"}, "[8]": {"molecular_target": "Gal(b1-3)GlcNAc(b1-2)Man(a1-3)[Gal(b1-3)GlcNAc(b1-2)Man(a1-6)]Man(b1-4)GlcNAc(b1-4)GlcNAc", "summary_of_the_method": "as §1"}, "[9]": {"molecular_target": "Gal(b1-3)GlcNAc(b1-2)Man(a1-3)[Gal(b1-3)GlcNAc(b1-2)Man(a1-6)]Man(b1-4)GlcNAc(b1-4)[Fuc(a1-6)]GlcNAc", "summary_of_the_method": "as §1"}, "[10]": {"molecular_target": "Gal(b1-3)GlcNAc(b1-2)Man(a1-3)[GlcNAc(b1-4)][Gal(b1-3)GlcNAc(b1-2)Man(a1-6)]Man(b1-4)GlcNAc(b1-4)GlcNAc", "summary_of_the_method": "as §1"}, "[11]": {"molecular_target": "Gal(b1-3)GlcNAc(b1-2)[Gal(b1-3)GlcNAc(b1-6)]Man(a1-6)[Gal(b1-3)GlcNAc(b1-2)Man(a1-3)]Man(b1-4)GlcNAc(b1-4)GlcNAc", "summary_of_the_method": "as §1"}, "[12]": {"molecular_target": "Gal(b1-3)GlcNAc(b1-3)Gal(b1-3)GlcNAc", "summary_of_the_method": "as §1"}, "[13]": {"molecular_target": "Gal(b1-3)GlcNAc(b1-3)Gal(b1-4)Glc", "summary_of_the_method": "as §1"}, "[14]": {"molecular_target": "Gal(b1-3)GlcNAc(b1-3)Gal(b1-4)GlcNAc", "summary_of_the_method": "as §1"}, "[15]": {"molecular_target": "Gal(b1-3)GlcNAc(b1-3)Gal(b1-4)GlcNAc(b1-2)Man(a1-3)[Gal(b1-3)GlcNAc(b1-3)Gal(b1-4)GlcNAc(b1-2)Man(a1-6)]Man(b1-4)GlcNAc(b1-4)GlcNAc", "summary_of_the_method": "as §1"}, "[16]": {"molecular_target": "Gal(b1-3)GlcNAc(b1-3)Gal(b1-4)GlcNAc(b1-2)[Gal(b1-3)GlcNAc(b1-3)Gal(b1-4)GlcNAc(b1-6)]Man(a1-6)[Gal(b1-3)GlcNAc(b1-3)Gal(b1-4)GlcNAc(b1-2)Man(a1-3)]Man(b1-4)GlcNAc(b1-4)[Fuc(a1-6)]GlcNAc", "summary_of_the_method": "as §1"}, "[17]": {"molecular_target": "Gal(b1-3)GlcNAc(b1-3)Gal(b1-4)GlcNAc(b1-3)Gal(b1-4)GlcNAc(b1-2)[Gal(b1-3)GlcNAc(b1-3)Gal(b1-4)GlcNAc(b1-3)Gal(b1-4)GlcNAc(b1-6)]Man(a1-6)[Gal(b1-3)GlcNAc(b1-3)Gal(b1-4)GlcNAc(b1-3)Gal(b1-4)GlcNAc(b1-2)Man(a1-3)]Man(b1-4)GlcNAc(b1-4)[Fuc(a1-6)]GlcNAc", "summary_of_the_method": "as §1"}, "[18]": {"molecular_target": "Gal(b1-3)GlcNAc(b1-3)Gal(b1-4)GlcNAc(b1-6)[Gal(b1-3)GlcNAc(b1-3)]Gal(b1-4)Glc", "summary_of_the_method": "as §1"}, "[19]": {"molecular_target": "Gal(b1-3)GlcNAc(b1-3)Gal(b1-4)[Fuc(a1-3)]GlcNAc", "summary_of_the_method": "as §1"}, "[20]": {"molecular_target": "Gal(b1-3)GlcNAc(b1-3)Gal(b1-4)[Fuc(a1-3)]GlcNAc(b1-6)[Gal(b1-3)GlcNAc(b1-3)]Gal(b1-4)Glc", "summary_of_the_method": "as §1"}, "[21]": {"molecular_target": "Gal(b1-3)GlcNAc(b1-3)GalNAc", "summary_of_the_method": "as §1"}, "[22]": {"molecular_target": "Gal(b1-3)GlcNAc(b1-6)Gal(b1-4)GlcNAc", "summary_of_the_method": "as §1"}, "[23]": {"molecular_target": "Gal(b1-3)GlcNAc(b1-6)GalNAc", "summary_of_the_method": "as §1"}, "[24]": {"molecular_target": "Gal(b1-3)GlcNAc(b1-6)[Gal(b1-3)]GalNAc", "summary_of_the_method": "as §1"}, "[25]": {"molecular_target": "Gal(b1-3)GlcNAc6S", "summary_of_the_method": "as §1"}, "[26]": {"molecular_target": "Gal(b1-3)[Fuc(a1-4)]GlcNAc", "summary_of_the_method": "as §1"}, "[27]": {"molecular_target": "Gal(b1-3)[Fuc(a1-4)]GlcNAc(b1-2)Man", "summary_of_the_method": "as §1"}, "[28]": {"molecular_target": "Gal(b1-3)[Fuc(a1-4)]GlcNAc(b1-2)Man(a1-3)[Gal(b1-3)[Fuc(a1-4)]GlcNAc(b1-2)Man(a1-6)]Man(b1-4)GlcNAc(b1-4)[Fuc(a1-6)]GlcNAc", "summary_of_the_method": "as §1"}, "[29]": {"molecular_target": "Gal(b1-3)[Fuc(a1-4)]GlcNAc(b1-3)Gal(b1-3)[Fuc(a1-4)]GlcNAc", "summary_of_the_method": "as §1"}, "[30]": {"molecular_target": "Gal(b1-3)[Fuc(a1-4)]GlcNAc(b1-3)Gal(b1-4)[Fuc(a1-3)]GlcNAc", "summary_of_the_method": "as §1"}, "[31]": {"molecular_target": "Gal(b1-3)[Fuc(a1-4)]GlcNAc(b1-6)GalNAc", "summary_of_the_method": "as §1"}, "[32]": {"molecular_target": "Gal(b1-3)[GlcNAc(b1-6)]GalNAc", "summary_of_the_method": "as §1"}, "[33]": {"molecular_target": "Gal(b1-3)[Neu5Ac(a2-6)]GalNAc", "summary_of_the_method": "as §1"}, "[34]": {"molecular_target": "Gal(b1-3)[Neu5Ac(a2-6)]GlcNAc(b1-4)Gal(b1-4)Glc", "summary_of_the_method": "as §1"}, "[35]": {"molecular_target": "Gal(b1-3)[Neu5Ac(b2-6)]GalNAc", "summary_of_the_method": "as §1"}, "[36]": {"molecular_target": "Gal(b1-4)Gal", "summary_of_the_method": "as §1"}, "[37]": {"molecular_target": "Gal(b1-4)GalNAc(a1-3)[Fuc(a1-2)]Gal(b1-4)GlcNAc", "summary_of_the_method": "as §1"}, "[38]": {"molecular_target": "Gal(b1-4)GalNAc(b1-3)[Fuc(a1-2)]Gal(b1-4)GlcNAc", "summary_of_the_method": "as §1"}}, "note": "This is one part of the list.", "data": [{"binder": "B1", "values": [{"measurement": "glycan array binding signal (z-score)", "setting": "[1]", "value": -0.746}, {"measurement": "glycan array binding signal (z-score)", "setting": "[2]", "value": 0.841}, {"measurement": "glycan array binding signal (z-score)", "setting": "[3]", "value": 1.48}, {"measurement": "glycan array binding signal (z-score)", "setting": "[4]", "value": 0.238}, {"measurement": "glycan array binding signal (z-score)", "setting": "[5]", "value": 0.206}, {"measurement": "glycan array binding signal (z-score)", "setting": "[6]", "value": -0.858}, {"measurement": "glycan array binding signal (z-score)", "setting": "[7]", "value": 0.604}, {"measurement": "glycan array binding signal (z-score)", "setting": "[8]", "value": -0.213}, {"measurement": "glycan array binding signal (z-score)", "setting": "[9]", "value": -0.333}, {"measurement": "glycan array binding signal (z-score)", "setting": "[10]", "value": 0.198}, {"measurement": "glycan array binding signal (z-score)", "setting": "[11]", "value": 0.978}, {"measurement": "glycan array binding signal (z-score)", "setting": "[12]", "value": 1.33}, {"measurement": "glycan array binding signal (z-score)", "setting": "[13]", "value": -0.42}, {"measurement": "glycan array binding signal (z-score)", "setting": "[14]", "value": -1.19}, {"measurement": "glycan array binding signal (z-score)", "setting": "[15]", "value": -0.152}, {"measurement": "glycan array binding signal (z-score)", "setting": "[16]", "value": 2.93}, {"measurement": "glycan array binding signal (z-score)", "setting": "[17]", "value": 2}, {"measurement": "glycan array binding signal (z-score)", "setting": "[18]", "value": 1.25}, {"measurement": "glycan array binding signal (z-score)", "setting": "[19]", "value": -0.913}, {"measurement": "glycan array binding signal (z-score)", "setting": "[20]", "value": -0.372}, {"measurement": "glycan array binding signal (z-score)", "setting": "[21]", "value": 0.574}, {"measurement": "glycan array binding signal (z-score)", "setting": "[22]", "value": 0.064}, {"measurement": "glycan array binding signal (z-score)", "setting": "[23]", "value": -1.17}, {"measurement": "glycan array binding signal (z-score)", "setting": "[24]", "value": 0.939}, {"measurement": "glycan array binding signal (z-score)", "setting": "[25]", "value": -1.62}, {"measurement": "glycan array binding signal (z-score)", "setting": "[26]", "value": -1.13}, {"measurement": "glycan array binding signal (z-score)", "setting": "[27]", "value": 1.63}, {"measurement": "glycan array binding signal (z-score)", "setting": "[28]", "value": 1.15}, {"measurement": "glycan array binding signal (z-score)", "setting": "[29]", "value": -0.817}, {"measurement": "glycan array binding signal (z-score)", "setting": "[30]", "value": -1.14}, {"measurement": "glycan array binding signal (z-score)", "setting": "[31]", "value": 0.415}, {"measurement": "glycan array binding signal (z-score)", "setting": "[32]", "value": 0.012}, {"measurement": "glycan array binding signal (z-score)", "setting": "[33]", "value": -0.318}, {"measurement": "glycan array binding signal (z-score)", "setting": "[34]", "value": 1.15}, {"measurement": "glycan array binding signal (z-score)", "setting": "[35]", "value": -0.564}, {"measurement": "glycan array binding signal (z-score)", "setting": "[36]", "value": 0.211}, {"measurement": "glycan array binding signal (z-score)", "setting": "[37]", "value": -1.21}, {"measurement": "glycan array binding signal (z-score)", "setting": "[38]", "value": -1.09}]}]}
